# Measurements as given in the supplement of paper PMC8728848.
# Some of the results follow.
# B1: AT5G17240(42) (Arabidopsis thaliana), Q6NQJ8 (protein)
# chain: MDLEHQTMETFLRWAAEIGISDSIDSSRFRDSCLGHSLSVSDFPDAGGRGLGAARELKKGELVLKVPRKALMTTESIIAKDLKLSDAVNLHNSLSSTQILSVCLLYEMSKEKKSFWYPYLFHIPRDYDLLATFGNFEKQALQVEDAVWATEKATAKCQSEWKEAGSLMKELELKPKFRSFQAWLWASATISSRTLHVPWDSAGCLCPVGDLFNYDAPGDYSNTPQGPESANNVEEAGLVVETHSERLTDGGFEEDVNAYCLYARRNYQLGEQVLLCYGTYTNLELLEHYGFMLEENSNDKVFIPLETSLFSLASSWPKDSLYIHQDGKLSFALISTLRLWLIPQSQRDKSVMRLVYAGSQISVKNEILVMKWMSEKCGSVLRDLPTSVTEDTVLLHNIDKLQDPELRLEQKETEAFGSEVRAFLDANCLWDVTVLSGKPIEFSRKTSRMLSKWRWSVQWRLSYKRTLADCISYCNEKMNNLLGTQDRLRDL
# Tests used:
# Experiment in all cases: glycan array binding signal (z-score within array); higher = stronger binding
# Details in all cases: glycan notation: IUPAC condensed, linker removed
# [1] = biological target: Neu5Ac(a2-6)Gal(b1-4)GlcNAc(b1-2)Man(a1-3)[Man(a1-6)]Man(b1-4)GlcNAc(b1-4)GlcNAc
# Method in brief: (§1)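 The Consortium for Functional Glycomics database supplied 3228 glycan arrays, of which those lacking an available protein sequence were dropped. The binding signal, a within-array Z-score, was averaged across arrays of the same protein sequence and across linkers. Negative scores can be read as non-binding.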
# [2] = biological target: Neu5Ac(a2-6)Gal(b1-4)GlcNAc(b1-2)Man(a1-3)[Neu5Ac(a2-3)Gal(b1-4)GlcNAc(b1-2)Man(a1-6)]Man(b1-4)GlcNAc(b1-4)GlcNAc
# Method in brief: as §1
# [3] = biological target: Neu5Ac(a2-6)Gal(b1-4)GlcNAc(b1-2)Man(a1-3)[Neu5Ac(a2-6)Gal(b1-4)GlcNAc(b1-2)Man(a1-6)]Man(b1-4)GlcNAc(b1-4)GlcNAc
# Method in brief: as §1
# [4] = biological target: Neu5Ac(a2-6)Gal(b1-4)GlcNAc(b1-2)Man(a1-3)[Neu5Ac(a2-6)Gal(b1-4)GlcNAc(b1-2)Man(a1-6)]Man(b1-4)GlcNAc(b1-4)[Fuc(a1-6)]GlcNAc
# Method in brief: as §1
# [5] = biological target: Neu5Ac(a2-6)Gal(b1-4)GlcNAc(b1-2)Man(a1-6)Man(b1-4)GlcNAc(b1-4)GlcNAc
# Method in brief: as §1
# [6] = biological target: Neu5Ac(a2-6)Gal(b1-4)GlcNAc(b1-2)Man(a1-6)[Gal(b1-4)GlcNAc(b1-2)Man(a1-3)]Man(b1-4)GlcNAc(b1-4)GlcNAc
# Method in brief: as §1
# [7] = biological target: Neu5Ac(a2-6)Gal(b1-4)GlcNAc(b1-2)Man(a1-6)[GlcNAc(b1-2)Man(a1-3)]Man(b1-4)GlcNAc(b1-4)GlcNAc
# Method in brief: as §1
# [8] = biological target: Neu5Ac(a2-6)Gal(b1-4)GlcNAc(b1-2)Man(a1-6)[Man(a1-3)]Man(b1-4)GlcNAc(b1-4)GlcNAc
# Method in brief: as §1
# [9] = biological target: Neu5Ac(a2-6)Gal(b1-4)GlcNAc(b1-2)[Neu5Ac(a2-6)Gal(b1-4)GlcNAc(b1-4)]Man(a1-3)[GlcNAc(b1-4)][Neu5Ac(a2-6)Gal(b1-4)GlcNAc(b1-2)[Neu5Ac(a2-6)Gal(b1-4)GlcNAc(b1-6)]Man(a1-6)]Man(b1-4)GlcNAc(b1-4)GlcNAc
# Method in brief: as §1
# [10] = biological target: Neu5Ac(a2-6)Gal(b1-4)GlcNAc(b1-2)[Neu5Ac(a2-6)Gal(b1-4)GlcNAc(b1-4)]Man(a1-3)[GlcNAc(b1-4)][Neu5Ac(a2-6)Gal(b1-4)GlcNAc(b1-4)Man(a1-6)]Man(b1-4)GlcNAc(b1-4)GlcNAc
# Method in brief: as §1
# [11] = biological target: Neu5Ac(a2-6)Gal(b1-4)GlcNAc(b1-2)[Neu5Ac(a2-6)Gal(b1-4)GlcNAc(b1-6)]Man(a1-6)[Neu5Ac(a2-6)Gal(b1-4)GlcNAc(b1-2)Man(a1-3)][GlcNAc(b1-4)]Man(b1-4)GlcNAc(b1-4)GlcNAc
# Method in brief: as §1
# [12] = biological target: Neu5Ac(a2-6)Gal(b1-4)GlcNAc(b1-3)Gal(b1-3)GlcNAc
# Method in brief: as §1
# [13] = biological target: Neu5Ac(a2-6)Gal(b1-4)GlcNAc(b1-3)Gal(b1-4)GlcNAc
# Method in brief: as §1
# [14] = biological target: Neu5Ac(a2-6)Gal(b1-4)GlcNAc(b1-3)Gal(b1-4)GlcNAc(b1-2)Man(a1-3)[Neu5Ac(a2-6)Gal(b1-4)GlcNAc(b1-3)Gal(b1-4)GlcNAc(b1-2)Man(a1-6)]GalNAc
# Method in brief: as §1
# [15] = biological target: Neu5Ac(a2-6)Gal(b1-4)GlcNAc(b1-3)Gal(b1-4)GlcNAc(b1-3)Gal(b1-4)GlcNAc
# Method in brief: as §1
# [16] = biological target: Neu5Ac(a2-6)Gal(b1-4)GlcNAc(b1-3)Gal(b1-4)GlcNAc(b1-3)Gal(b1-4)GlcNAc(b1-2)Man(a1-3)[Neu5Ac(a2-6)Gal(b1-4)GlcNAc(b1-3)Gal(b1-4)GlcNAc(b1-3)Gal(b1-4)GlcNAc(b1-2)Man(a1-6)]GalNAc
# Method in brief: as §1
# [17] = biological target: Neu5Ac(a2-6)Gal(b1-4)GlcNAc(b1-3)Gal(b1-4)GlcNAc(b1-3)GalNAc
# Method in brief: as §1
# [18] = biological target: Neu5Ac(a2-6)Gal(b1-4)GlcNAc(b1-3)Gal(b1-4)GlcNAc(b1-3)[Neu5Ac(a2-6)Gal(b1-4)GlcNAc(b1-3)Gal(b1-4)GlcNAc(b1-6)]GalNAc
# Method in brief: as §1
# [19] = biological target: Neu5Ac(a2-6)Gal(b1-4)GlcNAc(b1-3)Gal(b1-4)GlcNAc(b1-6)[Gal(b1-3)]GalNAc
# Method in brief: as §1
# [20] = biological target: Neu5Ac(a2-6)Gal(b1-4)GlcNAc(b1-3)Gal(b1-4)[Fuc(a1-3)]GlcNAc(b1-3)Gal(b1-4)[Fuc(a1-3)]GlcNAc
# Method in brief: as §1
# [21] = biological target: Neu5Ac(a2-6)Gal(b1-4)GlcNAc(b1-3)GalNAc
# Method in brief: as §1
# [22] = biological target: Neu5Ac(a2-6)Gal(b1-4)GlcNAc(b1-3)[Neu5Ac(a2-6)Gal(b1-4)GlcNAc(b1-6)]GalNAc
# Method in brief: as §1
# [23] = biological target: Neu5Ac(a2-6)Gal(b1-4)GlcNAc(b1-6)GalNAc
# Method in brief: as §1
# [24] = biological target: Neu5Ac(a2-6)Gal(b1-4)GlcNAc(b1-6)[Gal(b1-3)GlcNAc(b1-3)]Gal(b1-4)Glc
# Method in brief: as §1
# [25] = biological target: Neu5Ac(a2-6)Gal(b1-4)GlcNAc(b1-6)[Gal(b1-3)]GalNAc
# Method in brief: as §1
# [26] = biological target: Neu5Ac(a2-6)Gal(b1-4)GlcNAc6S
# Method in brief: as §1
# [27] = biological target: Neu5Ac(a2-6)GalNAc
# Method in brief: as §1
# [28] = biological target: Neu5Ac(a2-6)GalNAc(b1-4)GlcNAc
# Method in brief: as §1
# [29] = biological target: Neu5Ac(a2-6)GalNAc(b1-4)GlcNAc6S
# Method in brief: as §1
# [30] = biological target: Neu5Ac(a2-6)GlcNAc(b1-4)GlcNAc
# Method in brief: as §1
# [31] = biological target: Neu5Ac(a2-6)GlcNAc(b1-4)GlcNAc(b1-4)GlcNAc
# Method in brief: as §1
binder,measurement,setting,value
B1,glycan array binding signal (z-score),[1],-0.42
same,glycan array binding signal (z-score),[2],-0.662
same,glycan array binding signal (z-score),[3],0.399
same,glycan array binding signal (z-score),[4],-0.482
same,glycan array binding signal (z-score),[5],-0.017
same,glycan array binding signal (z-score),[6],-0.325
same,glycan array binding signal (z-score),[7],0.137
same,glycan array binding signal (z-score),[8],-0.317
same,glycan array binding signal (z-score),[9],-0.852
same,glycan array binding signal (z-score),[10],0.156
same,glycan array binding signal (z-score),[11],-0.372
same,glycan array binding signal (z-score),[12],-0.19
same,glycan array binding signal (z-score),[13],-0.478
same,glycan array binding signal (z-score),[14],-0.437
same,glycan array binding signal (z-score),[15],-0.523
same,glycan array binding signal (z-score),[16],1.23
same,glycan array binding signal (z-score),[17],0.352
same,glycan array binding signal (z-score),[18],-0.161
same,glycan array binding signal (z-score),[19],-0.161
same,glycan array binding signal (z-score),[20],0.029
same,glycan array binding signal (z-score),[21],-0.543
same,glycan array binding signal (z-score),[22],0.768
same,glycan array binding signal (z-score),[23],-0.592
same,glycan array binding signal (z-score),[24],-0.215
same,glycan array binding signal (z-score),[25],-0.398
same,glycan array binding signal (z-score),[26],0.084
same,glycan array binding signal (z-score),[27],0.119
same,glycan array binding signal (z-score),[28],-0.798
same,glycan array binding signal (z-score),[29],0.369
same,glycan array binding signal (z-score),[30],0.14
same,glycan array binding signal (z-score),[31],-0.428

# Eight entries from above, as tab-separated lines.
binder	measurement	setting	value
B1	glycan array binding signal (z-score)	[1]	-0.42
same	glycan array binding signal (z-score)	[5]	-0.017
same	glycan array binding signal (z-score)	[13]	-0.478
same	glycan array binding signal (z-score)	[16]	1.23
same	glycan array binding signal (z-score)	[17]	0.352
same	glycan array binding signal (z-score)	[18]	-0.161
same	glycan array binding signal (z-score)	[19]	-0.161
same	glycan array binding signal (z-score)	[23]	-0.592
